Source: PubChem BioAssay (Tox21)
Where “and” joins values, the source holds several entries; their conditions need not be identical. Equal entries are not always repeated. Inconclusive means that the source gave no clear call. Such entries were picked first, then a sample of the others. For some assays here: Potencies beside an inconclusive call are fits to weak or partial responses and may not hold up. Calls of active or inactive are those of the source. Unless noted, calls come from the whole dose curve.

Sequences of proteins named here, by UniProt entry; tags and fusion partners are left off. A change or cut given only in a name is not applied to a line headed by its entry.
UniProt P28223, whole entry, looked up: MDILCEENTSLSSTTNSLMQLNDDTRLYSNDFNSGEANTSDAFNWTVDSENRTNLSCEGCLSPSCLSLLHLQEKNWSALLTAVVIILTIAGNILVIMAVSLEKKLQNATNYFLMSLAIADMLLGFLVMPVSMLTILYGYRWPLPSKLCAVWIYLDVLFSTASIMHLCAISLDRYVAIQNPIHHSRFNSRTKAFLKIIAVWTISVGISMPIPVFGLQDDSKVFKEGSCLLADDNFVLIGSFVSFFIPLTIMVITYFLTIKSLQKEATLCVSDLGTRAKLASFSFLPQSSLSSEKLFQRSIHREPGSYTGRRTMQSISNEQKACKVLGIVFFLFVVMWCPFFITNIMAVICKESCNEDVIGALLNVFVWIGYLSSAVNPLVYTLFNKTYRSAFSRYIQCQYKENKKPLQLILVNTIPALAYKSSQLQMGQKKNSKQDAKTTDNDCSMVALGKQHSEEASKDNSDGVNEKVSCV
UniProt P11229: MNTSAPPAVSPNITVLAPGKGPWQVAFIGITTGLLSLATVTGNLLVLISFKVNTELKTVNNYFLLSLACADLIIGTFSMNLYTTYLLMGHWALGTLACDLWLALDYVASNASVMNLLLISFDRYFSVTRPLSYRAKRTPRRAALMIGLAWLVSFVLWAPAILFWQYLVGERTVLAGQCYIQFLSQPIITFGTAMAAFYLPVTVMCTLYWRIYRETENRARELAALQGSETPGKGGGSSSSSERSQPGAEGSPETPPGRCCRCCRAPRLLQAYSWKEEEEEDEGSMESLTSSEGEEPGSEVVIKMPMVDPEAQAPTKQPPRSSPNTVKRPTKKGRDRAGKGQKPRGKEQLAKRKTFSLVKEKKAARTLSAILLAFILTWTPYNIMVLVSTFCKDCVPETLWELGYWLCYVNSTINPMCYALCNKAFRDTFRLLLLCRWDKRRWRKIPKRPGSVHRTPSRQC
UniProt P14416, whole entry, looked up: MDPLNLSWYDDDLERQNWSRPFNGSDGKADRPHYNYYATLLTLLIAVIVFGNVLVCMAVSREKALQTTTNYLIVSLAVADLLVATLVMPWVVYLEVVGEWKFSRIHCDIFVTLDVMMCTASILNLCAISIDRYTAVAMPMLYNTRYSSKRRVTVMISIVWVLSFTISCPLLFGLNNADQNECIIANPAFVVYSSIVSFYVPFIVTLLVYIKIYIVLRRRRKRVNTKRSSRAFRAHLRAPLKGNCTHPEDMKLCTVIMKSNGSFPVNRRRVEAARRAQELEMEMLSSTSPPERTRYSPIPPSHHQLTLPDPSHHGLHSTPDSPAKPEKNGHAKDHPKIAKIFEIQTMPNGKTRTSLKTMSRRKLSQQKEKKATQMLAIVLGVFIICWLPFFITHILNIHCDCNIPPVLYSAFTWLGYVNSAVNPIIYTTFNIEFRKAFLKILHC

Columns and labels:
[1] = p53 small molecule agonists, cell-based qHTS assay with human liver microsomes: qHTS cell viability counter screen (AID 1963579); note: nearly all actives have a fitted effect of over 45% in size; note: potency is the fitted concentration of half-maximal effect; for activity change, negative = cytotoxicity: % is set by controls: 0 for no effect and ±100 for the full control effect
How it was run: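 Cells carrying the p53 response-element beta-lactamase reporter are treated for 16 h at 37 C with test compounds in the presence of human liver microsomes and NADPH (both 0.5 mg/mL final); ATP-based CellTiter-Glo luminescence then reports viability.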

[2] = biological target: 5-hydroxytryptamine receptor 2A (Homo sapiens) (UniProt P28223); assay: 5-hydroxytryptamine receptor 2A (HTR2A) small molecule antagonists, cell-based qHTS assay (AID 1963586); note: potency is the fitted concentration of half-maximal effect; nearly all actives have a fitted effect of over 45% in size
How it was run: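 Antagonist-mode intracellular calcium assay: DOI (4 nM) added after 5 min compound pre-incubation at room temperature to dye-loaded HTR2A-CHO cells. Fluorescence followed for 3 min, sampled every second.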

[3] = biological target: Beta-2 adrenergic receptor (Homo sapiens) (UniProt P07550); assay: Adrenergic beta2 receptor (ADRB2) small molecule agonists, cell-based qHTS assay (AID 1963593); conditions: CHO-ADRB2 cells, cAMP HTRF, 30 min; note: potency is the fitted concentration of half-maximal effect;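 for activation: CHO cells stably overexpressing human ADRB2; % is set by controls: 0 for no effect and ±100 for the full control effect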
How it was run: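 CHO cells stably over-expressing ADRB2 were plated overnight at 37C, then dosed with compounds plus a stimulation mix containing 100uM IBMX and 25uM Ro-20-1724 for 0.5hr at room temperature. cAMP was measured by HTRF competition, 1hr.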

[4] = biological target: Muscarinic acetylcholine receptor M1 (Homo sapiens) (UniProt P11229); assay: Cholinergic receptor muscarinic 1 (CHRM1) small molecule antagonists, cell-based qHTS assay (AID 1963588); note: potency is the fitted concentration of half-maximal effect; nearly all actives have a fitted effect of over 40% in size
How it was run: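 CHRM1-CHO calcium-flux assay, antagonist mode. Cells were seeded 18 h, dye-loaded 1 h at 37 C and given compound for 5 min at RT, then acetylcholine was added at 50nM. FDSS fluorescence was read 3 min; 15 concentrations, three runs.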

[5] = cAMP Responsive Elements (CRE) small molecule antagonists, cell-based qHTS assay (AID 1963591; active = well fitted inhibition curve with a large enough effect in the signal ratio in the repeat runs, not every such curve was filed as active; inconclusive = weak or mixed curves, or effect the other way; the % refers to the signal ratio; note: potency is the fitted concentration of half-maximal effect); conditions: CRE-bla HEK293T, beta-lactamase FRET ratio; activity change, negative = inhibition: at 92.4 µM (top of the series) unless noted
How it was run: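 qHTS in CRE-bla HEK 293T cells: compound in DMSO, then 0.25 uM NKH477 (final), 3 h at 37 °C/5% CO2; beta-lactamase FRET read-out after 2 h substrate incubation.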

[6] = cAMP Responsive Elements (CRE) small molecule agonists, cell-based qHTS assay (AID 1963590); conditions: CRE-bla HEK293T, beta-lactamase FRET ratio, 3 h; activation: at 92.4 µM (top of the series) unless noted; note: potency is the fitted concentration of half-maximal effect; for activation: % is set by controls: 0 for no effect and ±100 for the full control effect
How it was run: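 FRET-based beta-lactamase readout (LiveBLAzer B/G, 2 h RT) quantified CRE activation in HEK 293T CRE-bla cells after 3 h treatment with DMSO-dissolved compounds.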

[7] = biological target: D(2) dopamine receptor (Homo sapiens) (UniProt P14416); assay: Dopamine D2 receptor (DRD2) small molecule antagonists, cell-based qHTS assay (AID 1963595; active = well fitted inhibition curve with a large enough effect in the signal ratio in the repeat runs, with a control signal flat; inconclusive = weak or mixed curves, or effect the other way; the % refers to the signal ratio; note: % is set by controls: 0 for no effect and ±100 for the full control effect); conditions: HEK293-DRD2 cAMP HTRF antagonist mode; activity change, negative = inhibition: at 92.4 µM (top of the series) unless noted
How it was run: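 HEK293 cells stably expressing DRD2, preincubated with 0.1 mM Ro20-1724 and compounds 10 min, were stimulated with 200 nM NKH477 plus 12 nM quinpirole for 30 min at room temperature; cAMP measured by HTRF (665/620 nm).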

[8] = biological target: Beta-2 adrenergic receptor (Homo sapiens) (UniProt P07550); assay: Adrenergic beta2 receptor (ADRB2) small molecule antagonists, cell-based qHTS assay (AID 1963592); conditions: CHO-ADRB2 cells, isoproterenol-stimulated cAMP HTRF ratio, 0.5 h; activity change, negative = inhibition: at 92.4 µM (top of the series) unless noted; note: nearly all actives have a fitted effect of over 50% in size; note: potency is the fitted concentration of half-maximal effect
How it was run: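 Cells (CHO, stable ADRB2 overexpression) incubated 18-20hr at 37C; compounds added from DMSO; agonist mix (1nM isoproterenol, 100uM IBMX, 25uM Ro-20-1724) added; 0.5hr RT; d2-cAMP and anti-cAMP-cryptate added; 1hr RT; 665/615 nm read.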

[9] = biological target: D(2) dopamine receptor (Homo sapiens) (UniProt P14416); assay: Dopamine D2 receptor (DRD2) small molecule agonists, cell-based qHTS assay (AID 1963594); conditions: HEK293-DRD2 cAMP HTRF, agonist mode, 30 min; activation: at 92.4 µM (top of the series) unless noted; note: % is set by controls: 0 for no effect and ±100 for the full control effect; nearly all actives have a fitted effect of over 35% in size
How it was run: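 HEK293 cells stably expressing DRD2 were cultured 24 h at 37 C, then given Ro20-1724 (0.1 mM final) and compounds for 10 min at room temperature. NKH477 (200nM) was then added for 30 min. cAMP was read by HTRF.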

[10] = activation: at 92.4 µM (top of the series) unless noted

## NC1CCN(c2cccc(Cl)n2)CC1
[1]
  Potency: inconclusive: 112 nM [rising, partial curve, poor fit]
[2]
  Potency: active: 0.41 µM
[3]; [10]
  activation: inconclusive: 3.42% [at 42.5 µM]

## CCOC(=O)C1=NOC(c2ccccc2)(c2ccccc2)C1
[1]
  Potency: inactive
[4]
  Potency: inconclusive: 1.49 µM [inhibitor, single point]
[5]
  Potency: inconclusive: 68.6 µM [activator, single point]
[3]; [10]
  Potency: inactive

## Oc1cn2c(n1)Nc1ccc(Cl)c(Cl)c1C2
[1]
  activity change, negative = cytotoxicity: inactive: -1.56% [at 13.5 µM]
[6]
  Potency: inconclusive: 11.6 µM [rising, partial curve, poor fit]
[5]
  Potency: inconclusive: 3.26 µM [activator, full curve]
[3]; [10]
  activation: inactive: 0.855% [at 19 µM]
[7]
  activity change, negative = inhibition: inactive: -3.31% [at 18.9 µM]

## CCCN1C=CN(C)C1
[1]
  Potency: inactive
[6]
  Potency: inactive

## COc1cc(C(C)=O)ccc1OCCCN1CCC(c2noc3cc(F)ccc23)CC1
[1]
  Potency: inconclusive: 793 nM [cytotoxic, single point]
[4]
  Potency: active: 3.65 µM
[6]
  Potency: inactive
[8]
  Potency: inconclusive: 10.6 µM [inhibitor, partial curve, poor fit]
[3]; [10]
  Potency: inconclusive: 4.22 µM [inhibitor, full curve]

## CC(CO)(CO)[N+](=O)[O-]
[1]
  Potency: inactive
[6]
  Potency: inactive

## CC(=O)Nc1cccc(C)c1
[1]
  Potency: inactive
[4]
  Potency: inconclusive: 0.212 µM [inhibitor, full curve, poor fit]
[5]
  activity change, negative = inhibition: inconclusive: 0.595%
[3]; [10]
  activation: inconclusive: -14%

## O=C(c1ccccc1)c1ccc(O)cc1
[1]
  Potency: inconclusive: 51900 nM [cytotoxic, single point]
[6]
  Potency: inconclusive: 12.3 µM [rising, full curve, poor fit]
[3]; [10]
  activation: inconclusive: -75.8%

## c1ccc(CNCCNCc2ccccc2)cc1
[1]
  Potency: inconclusive: 793 nM [cytotoxic, single point]
[5]
  activity change, negative = inhibition: inconclusive: 15.1% [at 42.4 µM]
[3]; [10]
  activation: inconclusive: 15.8% [at 42.5 µM]

## CCCCCCOC(=O)C(C)C
[1]
  Potency: inactive
[5]
  Potency: inconclusive: 20.2 µM [cytotoxic, partial curve, poor fit]

## O=[N+]([O-])c1ccccc1Nc1ccccc1
[1]
  Potency: inactive
[6]
  Potency: inactive
[3]; [10]
  activation: inconclusive: 38.7%

## CC(=O)OCC(COC(C)=O)OC(C)=O
[1]
  Potency: inconclusive: 11200 nM [cytotoxic, single point]
[5]
  Potency: inactive
[3]; at 42.5 µM (top of the series)
  activation: inconclusive: -4.47%
[3]; at 92.4 µM (top of the series)
  activation: inconclusive: -0.527% and inactive: 13.3%
[9]
  activation: inconclusive: -2.68% [at 42.5 µM]
[7]
  activity change, negative = inhibition: inconclusive: 0.822%

## O=CC(=O)c1ccccc1
[1]
  Potency: inactive
[5]
  activity change, negative = inhibition: inconclusive: 27.6%
[3]; [10]
  Potency: inconclusive: 5.45 µM [inhibitor, partial curve, poor fit]

## CC(C)CC(C)CC(C)CC(C)COC(=O)c1ccccc1C(=O)OCC(C)CC(C)CC(C)CC(C)C (stereo unspecified)
[1]
  Potency: inconclusive: 47700 nM [cytotoxic, single point]
[8]
  Potency: inactive

## O=C(Nc1ccc(Cl)c(Cl)c1)C1CC1
[1]
  Potency: inconclusive: 63 nM [rising, full curve]
[6]
  Potency: inactive
[3]; [10]
  activation: inconclusive: -6.16% [at 42.5 µM]

## CCCOC(=O)c1cc(O)c(O)c(O)c1
[1]
  Potency: inconclusive: 40.6 µM [rising, single point] and inconclusive: 51.3 µM [rising, single point]
[8]
  Potency: inconclusive: 76.6 µM [falling, single point]
[3]; [10]
  Potency: inactive

## C1CCCCCCCCCCC1
[1]
  activity change, negative = cytotoxicity: inactive: -2.12% [at 13.5 µM]
[6]
  activation: inactive: -0.929% [at 19 µM]
[3]; [10]
  activation: inconclusive: 20.2% [at 19 µM]
[9]
  activation: inactive: -2.66% [at 19 µM]

## O=C1CCCc2ccccc21
[1]
  Potency: inactive
[5]
  Potency: inactive
[3]; [10]
  activation: inconclusive: 20.5%

## Nc1ccc(C(=O)OCC(O)CO)cc1 (stereo unspecified)
[1]
  Potency: inactive
[5]
  Potency: inactive
[3]; [10]
  activation: inconclusive: 12.3% [at 42.5 µM]

## COc1cc2c(N3CCN(C(=O)Nc4ccc(OC(C)C)cc4)CC3)ncnc2cc1OCCCN1CCCCC1
[1]
  Potency: inconclusive: 224 nM [rising, partial curve]
[6]
  Potency: inconclusive: 15 µM [rising, partial curve, poor fit]
[3]; [10]
  Potency: inconclusive: 0.0237 µM [activator, full curve, poor fit]
[7]
  activity change, negative = inhibition: inconclusive: -82.8% [at 42.5 µM]
